Laboratory results: publication PMC8571357
Results are given in words; binding and its absence hold for the method and conditions named. Binding seen in cells or lysates may run through a third protein. Some entries that bind do so weakly or less than the wild type.

Sequences of proteins named here, by UniProt entry; tags and fusion partners are left off.
UniProt O54943: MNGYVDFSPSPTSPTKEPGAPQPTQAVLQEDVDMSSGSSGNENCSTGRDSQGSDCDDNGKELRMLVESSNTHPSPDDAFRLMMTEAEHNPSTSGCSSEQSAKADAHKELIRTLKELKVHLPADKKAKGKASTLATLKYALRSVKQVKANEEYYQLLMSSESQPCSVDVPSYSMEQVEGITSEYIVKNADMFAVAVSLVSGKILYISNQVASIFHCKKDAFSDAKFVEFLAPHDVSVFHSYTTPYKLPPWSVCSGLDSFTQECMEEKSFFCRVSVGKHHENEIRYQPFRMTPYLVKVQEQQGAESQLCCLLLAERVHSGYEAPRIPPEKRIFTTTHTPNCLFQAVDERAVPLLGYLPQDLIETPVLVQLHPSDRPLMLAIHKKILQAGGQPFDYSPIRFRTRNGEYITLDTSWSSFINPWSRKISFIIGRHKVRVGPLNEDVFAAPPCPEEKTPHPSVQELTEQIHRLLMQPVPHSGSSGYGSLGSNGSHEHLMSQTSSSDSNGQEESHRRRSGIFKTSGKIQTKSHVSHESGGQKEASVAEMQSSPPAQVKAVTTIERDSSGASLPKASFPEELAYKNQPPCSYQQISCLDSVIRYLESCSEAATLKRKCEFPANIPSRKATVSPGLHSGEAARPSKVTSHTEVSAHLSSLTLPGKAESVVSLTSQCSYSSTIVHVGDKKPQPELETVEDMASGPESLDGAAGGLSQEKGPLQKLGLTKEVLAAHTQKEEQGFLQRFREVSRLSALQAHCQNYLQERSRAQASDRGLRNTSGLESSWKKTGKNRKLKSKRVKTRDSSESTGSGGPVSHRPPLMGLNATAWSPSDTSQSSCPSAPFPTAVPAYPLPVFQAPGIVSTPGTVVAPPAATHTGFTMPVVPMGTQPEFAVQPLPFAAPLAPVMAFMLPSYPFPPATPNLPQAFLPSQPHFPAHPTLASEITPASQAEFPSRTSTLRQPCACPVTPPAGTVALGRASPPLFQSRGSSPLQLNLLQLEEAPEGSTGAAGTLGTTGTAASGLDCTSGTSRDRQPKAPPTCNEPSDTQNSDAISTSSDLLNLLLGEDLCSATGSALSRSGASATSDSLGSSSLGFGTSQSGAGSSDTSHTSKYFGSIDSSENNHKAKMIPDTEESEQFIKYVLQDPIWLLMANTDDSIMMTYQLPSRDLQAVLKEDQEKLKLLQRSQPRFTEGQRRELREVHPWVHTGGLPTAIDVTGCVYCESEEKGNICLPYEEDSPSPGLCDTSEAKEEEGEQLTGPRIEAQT

Tests used:
[1] = molecular target: T1, cAMP-regulated transcriptional co-activator 1 (CRTC1) (mouse (endogenous in mouse fibroblasts and SCN tissue)) (UniProt Q68ED7); assay: co-IP; circa 400 ug extract of pooled mouse SCN (wt and Per2 KO), collected in the dark or 15 min after a light pulse at ZT14; antibody 1:50 at 4 °C overnight, protein-A agarose, Western blot
T1 sequence: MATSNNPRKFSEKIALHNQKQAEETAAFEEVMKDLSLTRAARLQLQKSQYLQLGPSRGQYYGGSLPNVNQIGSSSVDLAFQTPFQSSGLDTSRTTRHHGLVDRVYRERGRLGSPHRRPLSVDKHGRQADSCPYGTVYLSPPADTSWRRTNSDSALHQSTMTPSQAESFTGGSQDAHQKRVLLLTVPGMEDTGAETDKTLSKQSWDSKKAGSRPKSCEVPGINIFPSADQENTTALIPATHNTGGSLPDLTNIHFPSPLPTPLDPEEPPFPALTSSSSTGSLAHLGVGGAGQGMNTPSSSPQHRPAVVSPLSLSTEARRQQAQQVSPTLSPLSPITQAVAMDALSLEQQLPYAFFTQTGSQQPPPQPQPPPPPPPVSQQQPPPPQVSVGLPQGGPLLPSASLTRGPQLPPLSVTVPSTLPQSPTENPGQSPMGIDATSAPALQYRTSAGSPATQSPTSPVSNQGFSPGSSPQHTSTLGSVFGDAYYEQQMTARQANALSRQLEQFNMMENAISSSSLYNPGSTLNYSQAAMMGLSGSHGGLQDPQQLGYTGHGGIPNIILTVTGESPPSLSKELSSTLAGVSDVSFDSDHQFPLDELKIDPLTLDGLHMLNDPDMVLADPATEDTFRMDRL

[2] = molecular target: T1, cAMP-regulated transcriptional co-activator 1 (CRTC1) (mouse (endogenous in mouse fibroblasts and SCN tissue)); assay: co-IP; circa 400 ug Ripa extract of mouse fibroblasts (NIH 3T3; wt and Per2 KO lines), before and after forskolin (25 min); antibody 1:50 at 4 °C overnight, protein-A agarose, washes with NP-40 buffer, Western blot

- binding [1]: binds
- binding [2]: binds
Substance: PER2 (from UniProt O54943 1-1257)
